Screen size: about 320,000 compounds; about 22,000 (6.9%) were called active. Inconclusive results, whose numbers are uncertain, are shown with a selection of clear calls. Calls follow the shape of the dose curve; as a rule, active = well fitted inhibition curve with a large enough effect; inconclusive = small, poorly fitted or top-dose-only effect, or another doubt; inactive = no such curve, though single readings can be large or run the other way. A potency beside an inconclusive call is a rough fit, not a confirmed value.
Test: Primary qHTS for delayed death inhibitors of the malarial parasite plastid, 96 hour incubation
Details: P. falciparum luciferase reporter growth; series mostly up to 28.7 µM
Method in brief: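 P. falciparum expressing integrated firefly luciferase, in erythrocytes at 2% hematocrit, 0.05% parasitemia, incubated with compounds 96 h at 37 C, 5% CO2. Growth inhibition read as loss of luminescence; two-generation exposure targets delayed-death apicoplast inhibitors.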
Potency is read from the fitted curve at half-maximal effect.

With `COc1ccc(S(=O)(=O)N(Cc2cccnc2)Cc2cc3ccccc3[nH]c2=O)cc1` as the molecule, how does the Potency read?
Its Potency is inconclusive: 18.5 µM [inhibitor, single point].

Which Potency does the source give for `Cc1ccc(N2C(=O)CSC2c2c(F)cccc2Cl)cc1` (stereo not drawn) here?
Its Potency is inconclusive: 0.828 µM [inhibitor, partial curve, poor fit].

With `CCN1CCN(C(=O)c2cnn3c(C(F)F)cc(-c4ccc(C)cc4)nc23)CC1` as the molecule, how does the Potency read?
The Potency was active: 7.38 µM.

With `O=C(Nc1ccncc1)c1ccc(F)cc1` as the molecule, how does the Potency read?
Its Potency is active: 5.22 µM.

With `O=S1(=O)CC/C(=N\Nc2ccc(F)cc2)c2ccsc21` as the molecule, how does the Potency read?
Its Potency is inconclusive: 2.33 µM [inhibitor, partial curve, poor fit].

For `CCOC(=O)c1ccc(N=c2sc(C(=O)OC)cc(=O)n2Cc2ccco2)cc1`, which Potency is on record?
Its Potency is inconclusive: 13.1 µM [inhibitor, single point].

For `COc1c([N+](=O)[O-])c(=O)oc2ccccc12`, which Potency is on record?
Its Potency is inconclusive: 0.0104 µM [inhibitor, full curve].

For `NS(=O)(=O)c1ccc(CCNC(=O)Cn2c(=O)c3cccn3c3cccnc32)cc1`, which Potency is on record?
Its Potency is inconclusive: 13.1 µM [inhibitor, partial curve, poor fit].

Which Potency does the source give for `COCCNC(=O)CN(c1ccc(C)cc1)S(=O)(=O)c1ccc(SC)cc1` here?
Its Potency is inconclusive: 11.7 µM [inhibitor, partial curve, poor fit].

Which Potency does the source give for `O=C(CCN1CCOCC1)Nc1cc(C(=O)Nc2ccc(Cl)cc2)ccc1N1CC2CC(C1)c1cccc(=O)n1C2` (stereo not drawn) here?
Its Potency is inconclusive: 18.5 µM [inhibitor, single point].

For `Cc1ccc(CNC(=O)c2ccc(N(C)S(=O)(=O)c3ccccc3)cc2)cc1`, which Potency is on record?
Its Potency is inconclusive: 0.0738 µM [inhibitor, full curve, poor fit].

For `Cc1ccc(Oc2ccc(C=O)cn2)cc1`, which Potency is on record?
The Potency was “inactive”.

Which Potency does the source give for `CN(C)CCCN(C(=O)c1ccc(S(=O)(=O)N(C)C2CCCCC2)cc1)c1nc2ccc(F)cc2s1` here?
The Potency was inconclusive: 18.5 µM [inhibitor, single point].

Which Potency does the source give for `O=C(NCc1ccc2c(c1)OCO2)C1CCCN1C(=O)Nc1ccccc1` (stereo not drawn) here?
The Potency was “inactive”.

With `CC(=O)c1c(C)n([O-])c2ccc(C)cc2[n+]1=O` as the molecule, how does the Potency read?
Its Potency is inconclusive: 2.08 µM [inhibitor, partial curve].

Which Potency does the source give for `Cc1ccc(NC(=O)CSc2ncn(-c3ccccc3)n2)cc1C` here?
Its Potency is inconclusive: 9.28 µM [inhibitor, single point].

Which Potency does the source give for `CC12CC3CC(C)(C1)CC(C(=O)NNC(=O)c1ccncc1)(C3)C2` here?
The Potency was inconclusive: 10.4 µM [inhibitor, partial curve, poor fit].

Which Potency does the source give for `COc1ccccc1NC(=O)Nc1ccccc1Br` here?
Its Potency is “inactive”.

With `O=C(N/C=C/c1ccco1)OCc1ccccc1` as the molecule, how does the Potency read?
Its Potency is “inactive”.

With `COc1ccc(OC)c(CCNC(=O)CCC(=O)N2CCOc3ccc(C)cc32)c1` as the molecule, how does the Potency read?
Its Potency is inconclusive: 1.47 µM [inhibitor, partial curve, poor fit].

Which Potency does the source give for `O=C(O)C1=C[C@@H](c2ccc(C(F)(F)F)cc2)C[C@@H](OCc2ccc(CO)cc2)O1` here?
Its Potency is “inactive”.

Which Potency does the source give for `COc1cccc(/C=C2\SC(=O)N(CC(=O)NC3CCS(=O)(=O)C3)C2=O)c1` (stereo not drawn) here?
The Potency was inconclusive: 14.7 µM [inhibitor, partial curve, poor fit].

Which Potency does the source give for `CC(C)(C)c1ccc(C(=O)N/C(=C\c2cccs2)C(=O)N2CCOCC2)cc1` here?
The Potency was “inactive”.

Which Potency does the source give for `O=C(CNC(=O)c1cccc(Cl)c1)N/N=C/C=C/c1ccccc1` here?
Its Potency is “inactive”.

Which Potency does the source give for `O=C(CSc1ncccc1-c1nc2ccccc2[nH]1)N1CCCCC1` here?
The Potency was inconclusive: 18.5 µM [inhibitor, single point].

Which Potency does the source give for `O=C(O)COc1ccc(NC(=O)c2ccco2)cc1` here?
The Potency was “inactive”.

For `CC1=C(C(=O)Nc2ccccc2)C(c2ccc(N(C)C)cc2)NC(=O)N1` (stereo not drawn), which Potency is on record?
The Potency was inconclusive: 6.57 µM [inhibitor, partial curve, poor fit].

Which Potency does the source give for `Cc1sccc1/C=N/NC(=O)c1ccco1` here?
The Potency was inconclusive: 11.7 µM [inhibitor, partial curve].

For `O=C(CS(=O)(=O)c1cn(Cc2ccc(Cl)cc2)c2ccccc12)N1CCCC1`, which Potency is on record?
The Potency was active: 8.28 µM.

With `CCCCCCC(=O)Nc1ccc(Br)cn1` as the molecule, how does the Potency read?
The Potency was “inactive”.

For `Cc1cc(-n2c(C)cc(C(=O)CSc3ncnc4ccccc34)c2C)no1`, which Potency is on record?
Its Potency is inconclusive: 13.1 µM [inhibitor, single point].

With `C#CCN1C(=O)C(O)(CC(=O)c2ccc3c(c2)OCCO3)c2ccccc21` (stereo not drawn) as the molecule, how does the Potency read?
Its Potency is inconclusive: 11.7 µM [inhibitor, single point].

For `CCN(CCNC(=O)C1CCN(Cc2nc(-c3cccc(Cl)c3)oc2C)CC1)c1ccccc1`, which Potency is on record?
Its Potency is inconclusive: 0.586 µM [inhibitor, full curve, poor fit].

For `COc1ccc(NCC(=O)N/N=C/c2c(C)nn(Cc3ccccc3)c2Cl)cc1`, which Potency is on record?
The Potency was inconclusive: 10.4 µM [inhibitor, single point].

Which Potency does the source give for `CCNC(=O)c1ccccc1SCc1ccccc1` here?
The Potency was inconclusive: 18.5 µM [inhibitor, single point].

With `COC(=O)CN(C)C(=O)c1ccc2nc(Cc3cccc(Cl)c3)oc2c1` as the molecule, how does the Potency read?
Its Potency is inconclusive: 18.5 µM [inhibitor, single point].

With `Cn1c(CCN2CCCCC2)nc2cc(NC(=O)COc3ccc(Cl)cc3)ccc21` as the molecule, how does the Potency read?
The Potency was inconclusive: 2.08 µM [inhibitor, full curve].

For `COc1cccc(NC(=O)c2oc3ccccc3c2NC(=O)C2CC2)c1`, which Potency is on record?
Its Potency is inconclusive: 5.22 µM [inhibitor, partial curve].

Which Potency does the source give for `O=C(N/N=C/c1ccc([N+](=O)[O-])o1)C1CCCC1` here?
The Potency was inconclusive: 13.1 µM [inhibitor, partial curve, poor fit].

Which Potency does the source give for `O=C(O)CCCCCN1C(=O)/C(=C/c2ccncc2)SC1=S` here?
The Potency was inconclusive: 13.1 µM [inhibitor, single point].

For `COC(=O)C1=C(CS(=O)(=O)c2ccc(Cl)cc2)NC(=O)NC1c1ccc(O)cc1` (stereo not drawn), which Potency is on record?
Its Potency is inconclusive: 0.928 µM [inhibitor, full curve, poor fit].

Which Potency does the source give for `Cc1c(C(N)=O)sc2ncn(CC(=O)NCCc3ccccc3)c(=O)c12` here?
The Potency was inconclusive: 11.7 µM [inhibitor, single point].

Which Potency does the source give for `O=C(NN1C(=O)/C(=C/C=C/c2ccco2)SC1=S)c1ccccc1O` here?
Its Potency is “inactive”.
